Values quoted from earlier work in patent publication US20230181556A1, “USE OF PSYCHOTROPIC DRUGS FOR THE TREATMENT OF CORONAVIRUS INFECTIONS” (priority 2020, published 2023).
Entries after “also recorded” stand apart in the source; their conditions may differ. At least one structure is not confirmed: it was looked up by name or label, or the drawing left a doubt.

tested on: viruses as listed per drug; conditions: virus or effect named in the literature; cited from earlier work

Compound	Examples of published in vitro antiviral activity
CN(C)CCCC1(c2ccc(F)cc2)OCc2cc(C#N)ccc21 (stereo not shown) [Citalopram]	HIV
CN1CCN(C2=Nc3cc(Cl)ccc3Nc3ccccc32)CC1 [Clozapine]	Epstein-Barr; also recorded: Reactivation HIV
[Li] [Lithium]	orthoreoviruses
CCCC(CCC)C(=O)O [Valproate]	HSV (Virus Res
